Assay results published in patent US20130065226A1, “METHOD OF DETERMINING DOSE AND ADMINISTRATION OF STATIN” (TOHOKU UNIVERSITY, priority 2011, published 2013).
Read-outs that look alike come from different tables or passages of the source.

Assays:
[1] = Plasma concentration of statins in mice; format: in vivo; details: male, mouse, oral, 24 hours after last of 2-week gavage, atorvastatin 10 mg/kg/day, pravastatin 50 mg/kg/day, read-out: Plasma concentration of statin
Description: The present inventors measured the plasma concentrations of statins (atorvastatin and pravastatin) after the 2-week treatment in mice, according to Higashi et al.'s literature (Higashi, M. et al., Circ. Res. 93, 767-775 (2003)).
Furthermore, the present inventors administrated each statin by gavage for 2 weeks from the start of AngII administration ([…], 10 mg/kg/day or pravastatin, 50 mg/kg/day) to the each group of mouse. The present inventors measured plasma concentration of statins 24 hours after the last administration (Table 3).

Racl = assay: Protein expression in HUVEC subcellular fractions: Racl (with or without proteasome inhibitor MG-132); details: HUVEC nucleus fraction, 24 h; atorvastatin 10 μM, pitavastatin 1 μM

In the case of `CC(C)c1c(C(=O)Nc2ccccc2)c(-c2ccccc2)c(-c2ccc(F)cc2)n1CC[C@@H](O)C[C@@H](O)CC(=O)O` [atorvastatin], the concentration at 24 h ([1]; AngII-infused SmgGDS+/+ mice) is reported as < 0.01 ng/mL, the concentration at 24 h ([1]; AngII-infused SmgGDS+/− mice) is reported as < 0.01 ng/mL and the “intra-nuclear Racl level” value (Racl) is reported as “decreased the intra-nuclear Racl level”.
